Experimental findings from article doi:10.1101/2020.01.13.904318 (bioRxiv, 2020) are described below.

The exact form of at least one protein or probe is not confirmed. The comparison behind a weaker result is the experiment's own reference, which may not be listed here. Tags and fusion partners may be left off the protein sequences shown.

The target in the data set is T1, FrlR (Eco) (Escherichia coli) (UniProt P45544).
T1 sequence (looked up, limits assumed): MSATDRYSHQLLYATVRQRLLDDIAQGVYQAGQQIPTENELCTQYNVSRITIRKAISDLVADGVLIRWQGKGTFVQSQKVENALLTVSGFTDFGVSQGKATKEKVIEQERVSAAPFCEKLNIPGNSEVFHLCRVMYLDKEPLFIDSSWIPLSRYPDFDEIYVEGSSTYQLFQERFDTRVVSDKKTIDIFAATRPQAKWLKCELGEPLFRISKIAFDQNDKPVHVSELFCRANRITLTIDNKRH
Briefly: SPR. The note with it: no effector.

As for “ACGGCCAGTGAATTCTAATACGACTCACTATAGGGATAAAAAAATAAATT (double strand) [Random control (Random-Fw/Random-Rev)]”, the binding result is “binds more weakly”.
